Structures can show the parent of a compound that is named as a salt. ± gives the standard deviation of the averaged measurements. Some of the results follow. The data scatter; read single values as rough.
Key:
hAMSC donor 1 [1] = experiment: Hoechst total cell count ratio vs vehicle control; higher = more cells (less toxicity)
hAMSC donor 2 [2] = experiment: as above
hAMSC donor 1 [3] = experiment: transgenic luciferase activity (RLU/mg protein) fold change vs vehicle control (ratio); higher = more transgene expression
hAMSC donor 2 [4] = experiment: as above
hAMSC donor 1 [5] = experiment: transfection efficiency (EGFP+ cells / Hoechst count) fold change vs vehicle control (ratio); hAMSC are human adipose-derived mesenchymal stem cells given an EGFP-luciferase plasmid by lipofection; higher = enhanced transfection
hAMSC donor 2 [6] = experiment: as above
[7] = priming compound concentration 0.2 µM
[8] = priming compound concentration 1.7 µM
[9] = priming compound concentration 13 µM

Compound	Hoechst total cell count ratio (hAMSC donor 1 [1]; [7])	Hoechst total cell count ratio (hAMSC donor 1 [1]; [8])	Hoechst total cell count ratio (hAMSC donor 1 [1]; [9])	Hoechst total cell count ratio (hAMSC donor 2 [2]; [7])	Hoechst total cell count ratio (hAMSC donor 2 [2]; [8])	Hoechst total cell count ratio (hAMSC donor 2 [2]; [9])	transgenic luciferase activity (hAMSC donor 1 [3]; [7])	transgenic luciferase activity (hAMSC donor 1 [3]; [9])	transgenic luciferase activity (hAMSC donor 2 [4]; [7])	transgenic luciferase activity (hAMSC donor 2 [4]; [8])	transfection efficiency (hAMSC donor 1 [5]; [7])	transfection efficiency (hAMSC donor 1 [5]; [8])	transfection efficiency (hAMSC donor 1 [5]; [9])	transfection efficiency (hAMSC donor 2 [6]; [7])	transfection efficiency (hAMSC donor 2 [6]; [8])	transfection efficiency (hAMSC donor 2 [6]; [9])	transgenic luciferase activity (hAMSC donor 1 [3]; [8])	transgenic luciferase activity (hAMSC donor 2 [4]; [9])
Nc1ncnc2c1ncn2[C@@H]1O[C@H](CO)[C@@H](O)[C@@H]1O [Vidarabine]	0.918 ± 0.14	1.05 ± 0.22	0.711 ± 0.026	1.21 ± 0.2	0.817 ± 0.12	1.04 ± 0.21	0.664 ± 0.051	13.5 ± 5.3	0.93 ± 0.12	0.594 ± 0.1	1.41 ± 0.13	1.12 ± 0.14	1.29 ± 0.41	1.11 ± 0.16	1.34 ± 0.16	1.28 ± 0.35	–	–
CC(C)(C)NC[C@H](O)COc1nsnc1N1CCOCC1 [S(-)-Timolol maleate]	1.27 ± 0.25	1.2 ± 0.17	1.42 ± 0.023	1.02 ± 0.14	1.05 ± 0.075	1.07 ± 0.22	–	0.438 ± 0.11	0.649 ± 0.16	0.781 ± 0.085	1.22 ± 0.5	1.48 ± 0.42	1.31 ± 0.12	1.07 ± 0.14	1.25 ± 0.092	1.27 ± 0.27	0.632 ± 0.24	0.861 ± 0.12
CC(C)c1ccc2oc3nc(N)c(C(=O)O)cc3c(=O)c2c1 [Amlexanox]	1.25 ± 0.23	1.06 ± 0.11	1.25 ± 0.055	1.05 ± 0.13	1.44 ± 0.054	1.17 ± 0.18	–	0.677 ± 0.42	0.358 ± 0.14	0.983 ± 0.2	0.975 ± 0.09	1.6 ± 0.39	1.23 ± 0.38	1.1 ± 0.12	1.02 ± 0.049	1.12 ± 0.23	0.471 ± 0.27	1.18 ± 0.7
Nc1ccc(O)c(C(=O)O)c1 [Mesalamine]	0.959 ± 0.075	1.28 ± 0.034	1.17 ± 0.1	1.28 ± 0.15	0.841 ± 0.086	0.989 ± 0.035	–	1.06 ± 0.23	1.27 ± 0.12	0.93 ± 0.13	0.68 ± 0.31	0.971 ± 0.29	0.571 ± 0.11	0.747 ± 0.052	1.4 ± 0.18	1.12 ± 0.23	0.257 ± 0.073	0.77 ± 0.28
CO[C@@]1(NC(=O)Cc2cccs2)C(=O)N2C(C(=O)O)=C(COC(N)=O)CS[C@@H]21 [Cefoxitin sodium]	0.988 ± 0.035	1.26 ± 0.14	0.932 ± 0.088	0.869 ± 0.1	1.78 ± 0.28	1.17 ± 0.38	0.566 ± 0.17	–	0.533 ± 0.087	0.887 ± 0.18	–	1.74 ± 0.7	0.935 ± 0.14	1.52 ± 0.43	0.878 ± 0.062	1.2 ± 0.38	0.924 ± 0.51	0.651 ± 0.35
CO/N=C(\C(=O)N[C@@H]1C(=O)N2C(C(=O)O)=C(COC(C)=O)CS[C@H]12)c1csc(N)n1 [Cefotaxime sodium]	1.01 ± 0.087	1.24 ± 0.12	1.31 ± 0.18	1.33 ± 0.15	1.28 ± 0.053	1.46 ± 0.11	–	1.87 ± 0.87	0.951 ± 0.15	1.13 ± 0.05	1.17 ± 0.37	1.36 ± 0.44	0.596 ± 0.17	0.931 ± 0.083	1.03 ± 0.17	1.18 ± 0.18	0.418 ± 0.19	0.675 ± 0.2
C[C@H]1c2cccc(O)c2C(=O)C2=C(O)[C@]3(O)C(=O)C(C(N)=O)=C(O)[C@@H](N(C)C)[C@@H]3[C@@H](O)[C@@H]21 [Doxycycline]	1.04 ± 0.08	0.971 ± 0.17	1.13 ± 0.039	1.28 ± 0.061	1.1 ± 0.061	1.45 ± 0.021	–	1.55 ± 0.46	1.08 ± 0.47	0.499 ± 0.099	1.79 ± 0.97	1.31 ± 0.36	0.741 ± 0.24	1.11 ± 0.04	1.14 ± 0.075	0.825 ± 0.13	0.413 ± 0.15	0.483 ± 0.065

From the supplement of paper PMC7238544
